Consider five molecules from publication PMC6473003.

Amino acid sequences for entries named in this document (tags omitted).
UniProt P03372: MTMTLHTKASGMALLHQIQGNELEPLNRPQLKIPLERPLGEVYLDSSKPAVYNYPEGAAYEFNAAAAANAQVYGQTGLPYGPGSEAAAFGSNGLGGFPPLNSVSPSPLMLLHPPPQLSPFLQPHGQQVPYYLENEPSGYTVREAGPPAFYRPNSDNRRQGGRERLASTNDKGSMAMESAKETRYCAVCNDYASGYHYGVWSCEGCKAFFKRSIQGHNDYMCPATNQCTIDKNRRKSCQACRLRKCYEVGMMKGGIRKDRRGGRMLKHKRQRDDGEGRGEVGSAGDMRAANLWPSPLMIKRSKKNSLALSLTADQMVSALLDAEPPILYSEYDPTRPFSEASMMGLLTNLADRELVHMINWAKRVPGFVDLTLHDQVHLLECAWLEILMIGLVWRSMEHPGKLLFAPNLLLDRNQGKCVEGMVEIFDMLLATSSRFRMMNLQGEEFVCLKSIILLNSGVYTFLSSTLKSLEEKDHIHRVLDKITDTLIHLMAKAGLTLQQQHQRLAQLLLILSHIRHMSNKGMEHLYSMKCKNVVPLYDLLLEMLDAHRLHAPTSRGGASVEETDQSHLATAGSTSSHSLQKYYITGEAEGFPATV

No constants are given. Whether binding was seen depends on the method and setting. For some assays here: Binding seen in cells or lysates may run through a third protein. Some binding calls cover weakened binding; strength is not graded here. For some assays here: Where a sequence is shown, tags or fusion partners need not be part of it.

Experiment [1] addresses T1, GST-TRIM56 (UniProt Q9BRZ2).
T1 sequence: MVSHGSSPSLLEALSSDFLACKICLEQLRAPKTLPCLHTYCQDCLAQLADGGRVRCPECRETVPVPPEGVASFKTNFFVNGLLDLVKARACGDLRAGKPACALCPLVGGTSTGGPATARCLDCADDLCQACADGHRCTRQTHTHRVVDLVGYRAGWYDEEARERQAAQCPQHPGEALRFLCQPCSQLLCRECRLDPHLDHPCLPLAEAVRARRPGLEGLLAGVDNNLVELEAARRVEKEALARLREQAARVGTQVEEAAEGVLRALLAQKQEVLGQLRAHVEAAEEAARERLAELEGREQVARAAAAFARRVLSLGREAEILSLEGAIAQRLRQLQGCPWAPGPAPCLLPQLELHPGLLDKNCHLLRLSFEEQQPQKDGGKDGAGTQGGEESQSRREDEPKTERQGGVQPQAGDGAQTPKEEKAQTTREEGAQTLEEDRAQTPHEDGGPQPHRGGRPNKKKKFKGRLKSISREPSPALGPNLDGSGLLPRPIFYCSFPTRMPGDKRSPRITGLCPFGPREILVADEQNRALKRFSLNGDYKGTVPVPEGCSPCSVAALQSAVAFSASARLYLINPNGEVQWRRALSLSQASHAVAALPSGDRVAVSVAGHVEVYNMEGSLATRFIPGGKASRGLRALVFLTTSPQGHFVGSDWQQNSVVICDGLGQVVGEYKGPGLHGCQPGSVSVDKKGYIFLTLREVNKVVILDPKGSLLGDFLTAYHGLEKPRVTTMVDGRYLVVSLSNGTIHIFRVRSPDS
Description: pull-down; ER alpha recombinant protein incubated with GST-TRIM56 or GST protein, 4 °C, 30 min; resin washed with PBS with 30 mM imidazole and PBS with 0.01% Triton X-100; eluted with 250 mM imidazole; ER alpha detected by western blot; both purified. In general terms: In western blotting, separated proteins are transferred to a membrane and probed.

The target of experiment [2] is T2, TRIM56 (endogenous, MCF-7 cells) (human (endogenous in MCF-7)) (UniProt Q9BRZ2).
T2 sequence: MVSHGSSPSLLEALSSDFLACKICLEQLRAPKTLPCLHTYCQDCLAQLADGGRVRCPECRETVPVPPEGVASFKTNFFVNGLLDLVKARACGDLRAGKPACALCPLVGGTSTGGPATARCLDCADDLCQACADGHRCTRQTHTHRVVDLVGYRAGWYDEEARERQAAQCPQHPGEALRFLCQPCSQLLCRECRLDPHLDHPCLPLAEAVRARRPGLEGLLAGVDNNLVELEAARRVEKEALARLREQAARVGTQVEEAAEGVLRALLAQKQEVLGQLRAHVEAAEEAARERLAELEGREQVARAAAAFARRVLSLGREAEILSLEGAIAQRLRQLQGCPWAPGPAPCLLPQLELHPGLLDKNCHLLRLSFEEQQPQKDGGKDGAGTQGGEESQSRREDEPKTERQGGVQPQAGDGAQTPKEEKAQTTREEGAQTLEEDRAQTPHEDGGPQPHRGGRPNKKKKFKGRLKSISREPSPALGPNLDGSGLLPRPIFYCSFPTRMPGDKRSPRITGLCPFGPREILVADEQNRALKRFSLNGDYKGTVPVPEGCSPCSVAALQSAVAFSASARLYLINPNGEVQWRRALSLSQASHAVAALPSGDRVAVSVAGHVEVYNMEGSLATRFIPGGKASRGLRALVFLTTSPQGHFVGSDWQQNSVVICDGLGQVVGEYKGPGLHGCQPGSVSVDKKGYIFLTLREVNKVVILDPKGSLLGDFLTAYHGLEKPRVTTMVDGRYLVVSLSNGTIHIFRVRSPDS
Briefly: co-IP; cytoplasmic and nuclear fractions (subcellular protein fractionation kit), IP by TRIM56 antibody in both, ER alpha antibody for detection.

For experiment [3], the target named is T3, Myc-TRIM56 (UniProt Q9BRZ2).
T3 sequence: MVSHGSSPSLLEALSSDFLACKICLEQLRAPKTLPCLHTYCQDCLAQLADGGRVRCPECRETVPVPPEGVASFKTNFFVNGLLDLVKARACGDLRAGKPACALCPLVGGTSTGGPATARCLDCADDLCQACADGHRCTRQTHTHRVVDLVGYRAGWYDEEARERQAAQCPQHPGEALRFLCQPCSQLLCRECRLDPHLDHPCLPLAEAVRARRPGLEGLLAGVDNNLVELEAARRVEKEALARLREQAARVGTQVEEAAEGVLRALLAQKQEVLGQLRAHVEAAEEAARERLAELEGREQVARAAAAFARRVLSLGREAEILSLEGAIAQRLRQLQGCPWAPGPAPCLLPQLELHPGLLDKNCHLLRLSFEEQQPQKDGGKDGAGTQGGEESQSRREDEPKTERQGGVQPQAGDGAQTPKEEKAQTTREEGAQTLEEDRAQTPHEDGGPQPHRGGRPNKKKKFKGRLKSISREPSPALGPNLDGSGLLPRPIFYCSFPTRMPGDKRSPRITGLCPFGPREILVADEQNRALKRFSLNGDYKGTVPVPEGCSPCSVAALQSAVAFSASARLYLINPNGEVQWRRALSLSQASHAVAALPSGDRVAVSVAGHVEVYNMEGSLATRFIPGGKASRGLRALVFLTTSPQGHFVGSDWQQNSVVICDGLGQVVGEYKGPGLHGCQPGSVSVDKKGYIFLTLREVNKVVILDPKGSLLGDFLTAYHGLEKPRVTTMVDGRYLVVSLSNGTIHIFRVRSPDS
Briefly: co-IP; HEK293 cells transfected with Myc-TRIM56 and HA-ER alpha full length or mutants, NP-40 lysis buffer after 24 h, IP with Myc antibody, blot with HA antibody.

The target in experiment [4] is ER alpha (endogenous, MCF-7 cells) (human (endogenous in MCF-7)) (UniProt P03372). Briefly: co-IP; endogenous proteins, MCF-7 total lysate (RIPA lysis buffer), precleared with rabbit IgG, immunoprecipitated with ER alpha antibody (D8H8) overnight, blot with anti-TRIM56; rabbit IgG as negative control.
Experiment [5] concerns the target HA-ER alpha full length (human) (UniProt P03372). Description: co-IP; HEK293 cells transfected with HA-ER alpha and GFP-TRIM56 full length or mutants, NP-40 lysis buffer after 24 h, IP with HA antibody, blot with GFP antibody.

As to “ERα recombinant protein (Abcam Ab82606) (from UniProt P03372 1-595)”, in experiment [1], the binding entry is listed as “binds”.

Consider “ER alpha (endogenous, MCF-7 cells) (from UniProt P03372 1-595)”, for which the binding entry in experiment [2] is reported as “binds”.

As for “HA-ER alpha full length (from UniProt P03372 1-595)”, in experiment [3], the binding result is reported as “binds”.

B1: TRIM56 (endogenous, MCF-7 cells) (protein, UniProt Q9BRZ2 1-755)
chain: MVSHGSSPSLLEALSSDFLACKICLEQLRAPKTLPCLHTYCQDCLAQLADGGRVRCPECRETVPVPPEGVASFKTNFFVNGLLDLVKARACGDLRAGKPACALCPLVGGTSTGGPATARCLDCADDLCQACADGHRCTRQTHTHRVVDLVGYRAGWYDEEARERQAAQCPQHPGEALRFLCQPCSQLLCRECRLDPHLDHPCLPLAEAVRARRPGLEGLLAGVDNNLVELEAARRVEKEALARLREQAARVGTQVEEAAEGVLRALLAQKQEVLGQLRAHVEAAEEAARERLAELEGREQVARAAAAFARRVLSLGREAEILSLEGAIAQRLRQLQGCPWAPGPAPCLLPQLELHPGLLDKNCHLLRLSFEEQQPQKDGGKDGAGTQGGEESQSRREDEPKTERQGGVQPQAGDGAQTPKEEKAQTTREEGAQTLEEDRAQTPHEDGGPQPHRGGRPNKKKKFKGRLKSISREPSPALGPNLDGSGLLPRPIFYCSFPTRMPGDKRSPRITGLCPFGPREILVADEQNRALKRFSLNGDYKGTVPVPEGCSPCSVAALQSAVAFSASARLYLINPNGEVQWRRALSLSQASHAVAALPSGDRVAVSVAGHVEVYNMEGSLATRFIPGGKASRGLRALVFLTTSPQGHFVGSDWQQNSVVICDGLGQVVGEYKGPGLHGCQPGSVSVDKKGYIFLTLREVNKVVILDPKGSLLGDFLTAYHGLEKPRVTTMVDGRYLVVSLSNGTIHIFRVRSPDS
As to B1, in experiment [4], the binding result is listed as “binds”.

B2: GFP-TRIM56 full length (protein, UniProt Q9BRZ2 1-755)
chain: MVSHGSSPSLLEALSSDFLACKICLEQLRAPKTLPCLHTYCQDCLAQLADGGRVRCPECRETVPVPPEGVASFKTNFFVNGLLDLVKARACGDLRAGKPACALCPLVGGTSTGGPATARCLDCADDLCQACADGHRCTRQTHTHRVVDLVGYRAGWYDEEARERQAAQCPQHPGEALRFLCQPCSQLLCRECRLDPHLDHPCLPLAEAVRARRPGLEGLLAGVDNNLVELEAARRVEKEALARLREQAARVGTQVEEAAEGVLRALLAQKQEVLGQLRAHVEAAEEAARERLAELEGREQVARAAAAFARRVLSLGREAEILSLEGAIAQRLRQLQGCPWAPGPAPCLLPQLELHPGLLDKNCHLLRLSFEEQQPQKDGGKDGAGTQGGEESQSRREDEPKTERQGGVQPQAGDGAQTPKEEKAQTTREEGAQTLEEDRAQTPHEDGGPQPHRGGRPNKKKKFKGRLKSISREPSPALGPNLDGSGLLPRPIFYCSFPTRMPGDKRSPRITGLCPFGPREILVADEQNRALKRFSLNGDYKGTVPVPEGCSPCSVAALQSAVAFSASARLYLINPNGEVQWRRALSLSQASHAVAALPSGDRVAVSVAGHVEVYNMEGSLATRFIPGGKASRGLRALVFLTTSPQGHFVGSDWQQNSVVICDGLGQVVGEYKGPGLHGCQPGSVSVDKKGYIFLTLREVNKVVILDPKGSLLGDFLTAYHGLEKPRVTTMVDGRYLVVSLSNGTIHIFRVRSPDS
Consider B2, for which, in experiment [5], the binding result is on record as “binds”.
